Results taken from patent US20120251482A1, “USE FOR IMPROVING 5-HT FUNCTION AND ENOS EXPRESSION OF KMUPS AMINE SALTS” (KAOHSIUNG MEDICAL UNIVERSITY, priority 2011, published 2012).
For at least one compound, name, drawing or mass did not settle the structure.

How the values were obtained:
PASMCs = experiment: 5-HT-induced PASMCs proliferation, MTT assay; assay type: cell-based, rat; conditions: 10 μM; 5-HT 10 μM 24 h
Experimental: Wistar rats were anesthetized with an overdose of sodium pentobarbital (60 mg/kg) and the skin was sterilized with 75% alcohol. The chest was opened and the heart and lung were removed. The organs were rinsed several times in PBS. The pulmonary arterys (PAs) were segregated in a sterile manner. The outer sphere was peeled and the microtubule was snipped visually, and endothecia were shaved lightly 2-3 times in order to remove endothelial cells. The tunica media was prepared into scraps (1 mm^3) in DMEM (Dulbecco's modified Eagle's medium). PASMCs were cultured in DMEM containing 10% fetal bovine serum (5% CO2 at 37° C.). The culture medium was changed every 3 days and cells were subcultured until confluence. Primary cultures of 2-4 passages were used in the experiments. Cells were examined by immunofluorescence staining of α-actin to confirm the purity of PASMCs.
PASMCs were seeded into 96-well plates at a density of 1×10^4 cells/well. […] At the end of this period, MTT (2 g/L) was added to each well, and incubation proceeded at 37° C. for 4 h. Thereafter, the medium was removed and the cells were solubilized in 150 μL DMSO. The optical density (OD) of each well was determined by enzyme-linked ELISA at 540 nm of wavelength.

rat pulmonary artery = experiment: Isometric force of 5-HT-constricted pulmonary artery rings; conditions: 0.1-100 μM
Experimental: Wistar rats were euthanized with an overdose of sodium pentobarbital (60 mg/kg, i.p.) before open-chest surgery. During surgery, a thoracic retractor was used to help isolate the pulmonary artery. The chest was opened to dissect the second branches of the main pulmonary artery, which were cut into 2-3 mm rings, suspended under isometric conditions and connected to a force transducer as previously described (Ugo Basile, Model 7004, Comerio-VA, Italy) (Schach et al., 2007) to measure the constriction caused by 5-HT (10 μM). The pulmonary artery ring preparations were stretched to a basal tension of 1 g and allowed to equilibrate for 60-90 min. After equilibration, pulmonary artery rings were constricted with 5-HT (10 μM) to prime the tissues and check the functionality of the endothelium (at least 80% relaxation in response to acetylcholine 1 μM). Once the contractile response to each agonist reached a stable tension, KMUP-1 (0.1-100 μM) was cumulatively added to the organ bath in the presence of 5-HT (10 μM, pre-incubation time of 15 min).
The effect of KMUP-1 on NOS and 5-HT was also studied in vessels pre-incubated with the NOS inhibitor L-NAME (100 μM) 20 min before 5-HT administration. The percentage of relaxation was estimated using the following equation: relaxation (%)=(maximal contraction—relaxation level)/(maximal contraction-basal level)×100. […]

With `CCC(C)(C)C(=O)O[C@H]1C[C@@H](C)C=C2C=C[C@H](C)[C@H](CC[C@@H]3C[C@@H](O)CC(=O)O3)[C@H]21` [simvastatin, 2,2-dimethylbutanoic acid (1S,3R,7S,8S,8aR)-1,2,3,7,8,8a-hexahydro-3,7-dimethyl-8-[2-[(2R,4R)-tetra-hydro-4-hydroxy-6-oxo-2H-pyran-2-yl]ethyl]-maphthalenyl ester, reference compound] the PASMCs proliferation (PASMCs) was “inhibited” and the “contractile response of pulmonary artery to 5-HT (10 μM)” value (rat pulmonary artery) was “inhibited”.
